The list shows a part of the results.
Columns and labels:
Assay in all cases: glycan array binding signal (z-score within array); higher = stronger binding
Settings in all cases: glycan notation: IUPAC condensed, linker removed
GlcNAc(b1-3)Man = target: GlcNAc(b1-3)Man
Procedure, shortened: (§1)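 Columns mapping to the same glycan were averaged after glycan names were converted to IUPAC-condensed notation. The data come from 3228 arrays in the Consortium for Functional Glycomics database, limited to those with an available protein sequence. Binding is reported as a within-array Z-score averaged across arrays of one protein sequence and across linkers.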

[1] = target: GlcNAc(b1-3)[GlcNAc(b1-4)][GlcNAc(b1-6)]GlcNAc
Procedure, shortened: as §1

[2] = target: GlcNAc(b1-3)[GlcNAc(b1-6)]Gal(b1-4)GlcNAc
Procedure, shortened: as §1

[3] = target: GlcNAc(b1-3)[GlcNAc(b1-6)]GalNAc
Procedure, shortened: as §1

[4] = target: GlcNAc(b1-4)Gal(b1-4)GlcNAc
Procedure, shortened: as §1

GlcNAc(b1-4)GlcNAc = target: GlcNAc(b1-4)GlcNAc
Procedure, shortened: as §1

[5] = target: GlcNAc(b1-4)GlcNAc(b1-4)GlcNAc
Procedure, shortened: as §1

[6] = target: GlcNAc(b1-4)GlcNAc(b1-4)GlcNAc(b1-4)GlcNAc(b1-4)GlcNAc
Procedure, shortened: as §1

[7] = target: GlcNAc(b1-4)GlcNAc(b1-4)GlcNAc(b1-4)GlcNAc(b1-4)GlcNAc(b1-4)GlcNAc
Procedure, shortened: as §1

[8] = target: GlcNAc(b1-4)[GlcNAc(b1-6)]GalNAc
Procedure, shortened: as §1

[9] = target: GlcNAc(b1-6)Gal(b1-4)GlcNAc
Procedure, shortened: as §1

GlcNAc(b1-6)GalNAc = target: GlcNAc(b1-6)GalNAc
Procedure, shortened: as §1

[10] = target: GlcNAc6S(b1-3)Gal(b1-4)GlcNAc
Procedure, shortened: as §1

Kdn(a2-3)Gal(b1-3)GalNAc = target: Kdn(a2-3)Gal(b1-3)GalNAc
Procedure, shortened: as §1

Kdn(a2-3)Gal(b1-3)GlcNAc = target: Kdn(a2-3)Gal(b1-3)GlcNAc
Procedure, shortened: as §1

Kdn(a2-3)Gal(b1-4)Glc = target: Kdn(a2-3)Gal(b1-4)Glc
Procedure, shortened: as §1

Kdn(a2-3)Gal(b1-4)GlcNAc = target: Kdn(a2-3)Gal(b1-4)GlcNAc
Procedure, shortened: as §1

[11] = target: Kdn(a2-3)Gal(b1-4)[Fuc(a1-3)]GlcNAc
Procedure, shortened: as §1

Kdn(a2-6)Gal(b1-4)GlcNAc = target: Kdn(a2-6)Gal(b1-4)GlcNAc
Procedure, shortened: as §1

[12] = target: Man(a1-2)Man(a1-2)Man(a1-3)Man
Procedure, shortened: as §1

[13] = target: Man(a1-2)Man(a1-2)Man(a1-6)[Man(a1-3)]Man
Procedure, shortened: as §1

Man(a1-2)Man(a1-3)Man = target: Man(a1-2)Man(a1-3)Man
Procedure, shortened: as §1

[14] = target: Man(a1-2)Man(a1-3)[Man(a1-2)Man(a1-6)]Man
Procedure, shortened: as §1

[15] = target: Man(a1-2)Man(a1-3)[Man(a1-2)Man(a1-6)]Man(a1-6)[Man(a1-2)Man(a1-2)Man(a1-3)]Man
Procedure, shortened: as §1

[16] = target: Man(a1-2)Man(a1-3)[Man(a1-2)Man(a1-6)]Man(a1-6)[Man(a1-2)Man(a1-2)Man(a1-3)]Man(b1-4)GlcNAc(b1-4)GlcNAc
Procedure, shortened: as §1

[17] = target: Man(a1-2)Man(a1-3)[Man(a1-6)]Man(a1-6)[Man(a1-2)Man(a1-3)]Man(b1-4)GlcNAc(b1-4)GlcNAc
Procedure, shortened: as §1

[18] = target: Man(a1-2)Man(a1-6)[Man(a1-3)]Man(a1-6)[Man(a1-2)Man(a1-2)Man(a1-3)]Man
Procedure, shortened: as §1

[19] = target: Man(a1-2)Man(a1-6)[Man(a1-3)]Man(a1-6)[Man(a1-2)Man(a1-2)Man(a1-3)]Man(b1-4)GlcNAc(b1-4)GlcNAc
Procedure, shortened: as §1

Man(a1-3)[Man(a1-6)]Man = target: Man(a1-3)[Man(a1-6)]Man
Procedure, shortened: as §1

[20] = target: Man(a1-3)[Man(a1-6)]Man(a1-6)[Man(a1-2)Man(a1-3)]Man(b1-4)GlcNAc(b1-4)GlcNAc
Procedure, shortened: as §1

[21] = target: Man(a1-3)[Man(a1-6)]Man(a1-6)[Man(a1-3)]Man
Procedure, shortened: as §1

[22] = target: Man(a1-3)[Man(a1-6)]Man(a1-6)[Man(a1-3)]Man(b1-4)GlcNAc(b1-4)GlcNAc
Procedure, shortened: as §1

[23] = target: Man(a1-3)[Man(a1-6)]Man(b1-4)GlcNAc(b1-4)GlcNAc
Procedure, shortened: as §1

[24] = target: Man(a1-3)[Man(a1-6)]Man(b1-4)GlcNAc(b1-4)[Fuc(a1-6)]GlcNAc
Procedure, shortened: as §1

Man(a1-6)Man = target: Man(a1-6)Man
Procedure, shortened: as §1

Man(b1-4)GlcNAc = target: Man(b1-4)GlcNAc
Procedure, shortened: as §1

MurNAc(b1-4)GlcNAc = target: MurNAc(b1-4)GlcNAc
Procedure, shortened: as §1

Neu5Ac(a2-3)Gal = target: Neu5Ac(a2-3)Gal
Procedure, shortened: as §1

B1: PX9961KLbvu-535-38-535 (Bacteroides vulgatus) (protein)
chain: DKAYTDAESYTKGLHKIYSVWALSGQDGSSSSDISGLDAGNTALLRCWWTLQEQPTDEMKNAWNDAWCTEVNYMTWTTNKVEPIEGVYQRCMYIVALVNEFLKNIPNAPESIDKESYIAQARFNRAFAYYVLMDMFALPPFITEKNYSIEPAPLSREDLFNWIEAELNEIKPNLPSPRSEYGVADQAVASALLARMYLNAEIYTGKARYTECINACNEVIKAGYQLADNYADLFKADNGENPDTKKEIIYPIIFDGDKTQSWGMAAIIIGARGAEDKDVLLAHSGVDQGWAGFRATSNLVHLFDFQNDEEPKASEIQDKRGIFYDKGRSIDITSSVSGTFETEGWSVFKFSNLNSNGQPGKNTLWVDTDFPMFRLGDIYLMYAEAVARGGEGSKASAVEYINALRKRAYGDDKHNISENWLEENNFRNLLDERGRELYWEGIRRTDLVRFDLLTSGSYTWDFKGGINTGVGVNKRYNVYPIPVTDLTVNGNLQQNEGY
glycan array binding signal (z-score) (GlcNAc(b1-3)Man): -0.076
glycan array binding signal (z-score) [1]: -0.666
glycan array binding signal (z-score) [2]: -0.966
glycan array binding signal (z-score) [3]: -0.101
glycan array binding signal (z-score) [4]: -1.05
glycan array binding signal (z-score) (GlcNAc(b1-4)GlcNAc): -0.268
glycan array binding signal (z-score) [5]: -1.19
glycan array binding signal (z-score) [6]: -0.429
glycan array binding signal (z-score) [7]: -0.624
glycan array binding signal (z-score) [8]: -0.54
glycan array binding signal (z-score) [9]: 0.017
glycan array binding signal (z-score) (GlcNAc(b1-6)GalNAc): -0.148
glycan array binding signal (z-score) [10]: -0.704
glycan array binding signal (z-score) (Kdn(a2-3)Gal(b1-3)GalNAc): 0.667
glycan array binding signal (z-score) (Kdn(a2-3)Gal(b1-3)GlcNAc): -0.028
glycan array binding signal (z-score) (Kdn(a2-3)Gal(b1-4)Glc): 0.295
glycan array binding signal (z-score) (Kdn(a2-3)Gal(b1-4)GlcNAc): -1.14
glycan array binding signal (z-score) [11]: -0.266
glycan array binding signal (z-score) (Kdn(a2-6)Gal(b1-4)GlcNAc): -0.71
glycan array binding signal (z-score) [12]: 0.041
glycan array binding signal (z-score) [13]: -0.833
glycan array binding signal (z-score) (Man(a1-2)Man(a1-3)Man): -0.203
glycan array binding signal (z-score) [14]: -0.059
glycan array binding signal (z-score) [15]: -0.364
glycan array binding signal (z-score) [16]: 0.029
glycan array binding signal (z-score) [17]: -0.892
glycan array binding signal (z-score) [18]: 0.499
glycan array binding signal (z-score) [19]: -0.583
glycan array binding signal (z-score) (Man(a1-3)[Man(a1-6)]Man): -0.077
glycan array binding signal (z-score) [20]: 0.357
glycan array binding signal (z-score) [21]: 0.956
glycan array binding signal (z-score) [22]: 0.158
glycan array binding signal (z-score) [23]: -0.054
glycan array binding signal (z-score) [24]: -0.389
glycan array binding signal (z-score) (Man(a1-6)Man): -0.102
glycan array binding signal (z-score) (Man(b1-4)GlcNAc): 0.646
glycan array binding signal (z-score) (MurNAc(b1-4)GlcNAc): 0.495
glycan array binding signal (z-score) (Neu5Ac(a2-3)Gal): -0.055

Source: the supplement of paper PMC8728848
